Measurements: patent US11196057B2, “Metal-air cell with performance enhancing additive” (ARIZONA BOARD OF REGENTS ACTING FOR AND ON BEHALF OF …, priority 2010, dated 2021)
Like-named read-outs stand apart in the source and are kept apart here.

Tests used:
[1] = Electrochemical ORR analysis (CV, LSV, Koutecky-Levich) of protic additives titrated into aprotic ionic liquid BdMeIm:Tf
[2] = Cyclic voltammogram of air electrode half cell, 1-methyl-3-octyl-imidazolium chloride with and without Mn2+

Compound: Cc1nccn1C.O=S(=O)(O)C(F)(F)F [1,2-dimethylimidaozlium triflate]
- number of electrons transferred in the oxygen reduction reaction ([1]; protic additive in BdMeIm:Tf): two-electron transfer

Compound: OCC(F)(F)F [2,2,2-trifluoroethanol]
- number of electrons transferred in the oxygen reduction reaction [1]: two-electron transfer
- oxygen reduction product ([1]; protic additive in BdMeIm:Tf): peroxide

Compound: [Mn+2] [Mn^2+]
- shift in the turn-on potential for oxygen reduction ([2]; 6.1 Mol % in O2-saturated 1-methyl-3-octyl-imidazolium chloride): approximately 260 mV
- reversibility of metal-oxide oxidation reaction ([2]; 6.1 Mol %, oxygen saturated): reversible
- current density relative to comparative electrolyte ([2]; at half-wave potential, approximately 1.5V): 2.9 times

Compound: CC(=O)O [acetic acid]
- number of electrons transferred in the oxygen reduction reaction ([1]; protic additive in BdMeIm:Tf): two-electron transfer

Compound: O.O=S(=O)(O)C(F)(F)F [hydronium triflate]
- number of electrons transferred in the oxygen reduction reaction [1]: four-electron transfer

Compound: CS(=O)(=O)O [methanesulfonic acid]
- number of electrons transferred in the oxygen reduction reaction ([1]; protic additive in BdMeIm:Tf): four-electron transfer
- reversibility of oxygen reduction ([1]; protic additive in BdMeIm:Tf): loss of reversibility
- number of electrons transferred in the oxygen reduction reaction ([1]; protic additive in BdMeIm:Tf, listed as HMeS): four-electron ORR

Compound: CCN(C)CC.O=S(=O)(O)C(F)(F)F [n,n-diethyl-n-methylammonium triflate]
- number of electrons transferred in the oxygen reduction reaction ([1]; protic additive in BdMeIm:Tf): two-electron transfer

Compound: O=S(=O)(O)C(F)(F)F.c1ccnnc1 [pyridazinium triflate]
- number of electrons transferred in the oxygen reduction reaction ([1]; protic additive in BdMeIm:Tf): four-electron transfer

Compound: O=S(=O)(O)C(F)(F)F.c1ccncc1 [pyridinium triflate]
- number of electrons transferred in the oxygen reduction reaction [1]: two-electron transfer

Compound: O=S(=O)(O)C(F)(F)F [triflic acid]
- number of electrons in ORR on GC disk ([1]; GC disk): two-electron reaction in the first reduction
- number of electrons in ORR on Pt disk ([1]; Pt disk, additive 100 mM): four-electron reaction
- number of electrons transferred in the oxygen reduction reaction ([1]; protic additive in BdMeIm:Tf): four-electron transfer
- reversibility of oxygen reduction ([1]; protic additive in BdMeIm:Tf): loss of reversibility
- shift in the half-wave potential for the oxygen reduction reaction ([1]; protic additive in BdMeIm:Tf): greater than 1 V

Compound: O [water]
- number of electrons transferred in the oxygen reduction reaction ([1]; protic additive in BdMeIm:Tf): one-electron system
- oxygen reduction product ([1]; protic additive in BdMeIm:Tf): superoxide is dominant
- effect of increasing amount of additive on oxygen reduction reaction behavior ([1]; up to ~1M): little effect

Compound: acetophenone: HTf
- number of electrons transferred in the oxygen reduction reaction ([1]; protic additive in BdMeIm:Tf): four-electron transfer

Compound: benzonitrile: HTf
- number of electrons transferred in the oxygen reduction reaction ([1]; protic additive in BdMeIm:Tf): four-electron transfer
